Results are given in words; binding and its absence hold for the method and conditions named. Binding seen in cells or lysates may run through a third protein. A yes stands for co-enrichment or nearness to the bait. Other partners may have been found.
Biological target: Gnarl3 (product of phage accessory gene orf92) (Enterobacteriophage (lytic; which phage not stated))
Assay: affinity purification with mass spectrometry

B1: GalU (enzyme, UniProt P0AEP3 1-302)
chain: MAAINTKVKKAVIPVAGLGTRMLPATKAIPKEMLPLVDKPLIQYVVNECIAAGITEIVLVTHSSKNSIENHFDTSFELEAMLEKRVKRQLLDEVQSICPPHVTIMQVRQGLAKGLGHAVLCAHPVVGDEPVAVILPDVILDEYESDLSQDNLAEMIRRFDETGHSQIMVEPVADVTAYGVVDCKGVELAPGESVPMVGVVEKPKADVAPSNLAIVGRYVLSADIWPLLAKTPPGAGDEIQLTDAIDMLIEKETVEAYHMKGKSHDCGNKLGYMQAFVEYGIRHNTLGTEFKAWLEEEMGIKK
binding: binds

B2: GalF (protein, UniProt P0AAB6 1-297)
chain: MTNLKAVIPVAGLGMHMLPATKAIPKEMLPIVDKPMIQYIVDEIVAAGIKEILLVTHASKNAVENHFDTSYELESLLEQRVKRQLLAEVQSICPPGVTIMNVRQGEPLGLGHSILCARPAIGDNPFVVVLPDVVIDDASADPLRYNLAAMIARFNETGRSQVLAKRMPGDLSEYSVIQTKEPLDREGKVSRIVEFIEKPDQPQTLDSDIMAVGRYVLSADIWPELERTQPGAWGRIQLTDAIAELAKKQSVDAMLMTGDSYDCGKKMGYMQAFVKYGLRNLKEGAKFRKGIEKLLSE
binding: binds

B3: GalE (enzyme, UniProt P09147 1-338)
chain: MRVLVTGGSGYIGSHTCVQLLQNGHDVIILDNLCNSKRSVLPVIERLGGKHPTFVEGDIRNEALMTEILHDHAIDTVIHFAGLKAVGESVQKPLEYYDNNVNGTLRLISAMRAANVKNFIFSSSATVYGDQPKIPYVESFPTGTPQSPYGKSKLMVEQILTDLQKAQPDWSIALLRYFNPVGAHPSGDMGEDPQGIPNNLMPYIAQVAVGRRDSLAIFGNDYPTEDGTGVRDYIHVMDLADGHVVAMEKLANKPGVHIYNLGAGVGNSVLDVVNAFSKACGKPVNYHFAPRREGDLPAYWADASKADRELNWRVTRTLDEMAQDTWHWQSRHPQGYPD
binding: binds
